In the supplement of paper PMC12823440, “Inhibitors supercharge kinase turnover through native proteolytic circuits” (Nature, 2025):
Counter-ions that a name gives are not always drawn. This is one part of the list. Hit calls seldom repeat between salt and free forms of one compound.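 Kinases were expressed as nanoluciferase fusions in K562 cells and luminescence was read every 4 h between 2 and 18 h as percent of control, DMSO set to 100% and a positive control to 0%. A time point counts as decreased when the signal drops significantly (2 sigma). The hit call is the authors' own, does not follow from the count of time points alone, and its rule is not shown.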

By UniProt entry, the sequences of proteins in these tests, tags left out. Where a name states a change or a piece, a line headed by the entry shows the natural chain unless it says otherwise.
UniProt P00519, whole entry: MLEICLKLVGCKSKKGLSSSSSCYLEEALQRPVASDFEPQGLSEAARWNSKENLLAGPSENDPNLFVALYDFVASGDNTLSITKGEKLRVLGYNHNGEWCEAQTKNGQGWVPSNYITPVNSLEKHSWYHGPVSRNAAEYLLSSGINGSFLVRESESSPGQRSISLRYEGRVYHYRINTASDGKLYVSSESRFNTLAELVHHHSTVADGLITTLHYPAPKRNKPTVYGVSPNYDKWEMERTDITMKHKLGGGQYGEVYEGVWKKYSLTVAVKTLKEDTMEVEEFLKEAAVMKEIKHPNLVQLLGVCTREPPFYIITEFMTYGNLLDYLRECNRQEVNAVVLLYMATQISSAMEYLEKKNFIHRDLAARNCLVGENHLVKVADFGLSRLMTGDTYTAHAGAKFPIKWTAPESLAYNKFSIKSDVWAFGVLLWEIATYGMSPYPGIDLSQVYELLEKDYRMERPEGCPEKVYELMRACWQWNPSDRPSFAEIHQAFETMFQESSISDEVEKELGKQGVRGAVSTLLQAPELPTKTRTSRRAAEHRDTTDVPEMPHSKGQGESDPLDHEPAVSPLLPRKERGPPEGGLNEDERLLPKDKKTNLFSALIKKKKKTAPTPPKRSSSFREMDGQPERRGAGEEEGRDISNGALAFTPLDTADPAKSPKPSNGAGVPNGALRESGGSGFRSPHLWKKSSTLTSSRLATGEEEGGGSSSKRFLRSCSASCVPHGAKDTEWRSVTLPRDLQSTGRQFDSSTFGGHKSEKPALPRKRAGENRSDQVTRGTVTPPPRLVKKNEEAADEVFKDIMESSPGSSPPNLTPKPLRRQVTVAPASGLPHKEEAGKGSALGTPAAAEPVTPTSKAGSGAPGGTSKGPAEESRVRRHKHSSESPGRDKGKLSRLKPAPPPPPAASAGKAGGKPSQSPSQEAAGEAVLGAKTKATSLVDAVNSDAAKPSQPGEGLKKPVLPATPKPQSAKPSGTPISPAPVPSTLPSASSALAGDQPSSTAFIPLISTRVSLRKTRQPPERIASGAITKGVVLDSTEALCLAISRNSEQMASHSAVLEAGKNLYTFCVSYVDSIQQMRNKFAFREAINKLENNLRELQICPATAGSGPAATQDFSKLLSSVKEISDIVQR
UniProt P31749: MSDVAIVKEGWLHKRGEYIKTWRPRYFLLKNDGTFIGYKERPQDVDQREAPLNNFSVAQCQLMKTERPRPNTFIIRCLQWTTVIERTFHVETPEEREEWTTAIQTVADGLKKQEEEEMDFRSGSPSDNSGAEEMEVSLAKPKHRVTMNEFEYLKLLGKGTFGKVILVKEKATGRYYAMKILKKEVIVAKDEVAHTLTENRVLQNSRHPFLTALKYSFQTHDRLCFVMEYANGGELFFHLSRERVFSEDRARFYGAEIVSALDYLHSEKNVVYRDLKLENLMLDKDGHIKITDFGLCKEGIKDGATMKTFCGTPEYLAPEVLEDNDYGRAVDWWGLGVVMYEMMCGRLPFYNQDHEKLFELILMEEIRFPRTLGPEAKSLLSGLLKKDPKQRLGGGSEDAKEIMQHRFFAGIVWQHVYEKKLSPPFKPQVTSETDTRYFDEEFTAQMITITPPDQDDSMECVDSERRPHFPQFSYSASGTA
UniProt Q9UQB9: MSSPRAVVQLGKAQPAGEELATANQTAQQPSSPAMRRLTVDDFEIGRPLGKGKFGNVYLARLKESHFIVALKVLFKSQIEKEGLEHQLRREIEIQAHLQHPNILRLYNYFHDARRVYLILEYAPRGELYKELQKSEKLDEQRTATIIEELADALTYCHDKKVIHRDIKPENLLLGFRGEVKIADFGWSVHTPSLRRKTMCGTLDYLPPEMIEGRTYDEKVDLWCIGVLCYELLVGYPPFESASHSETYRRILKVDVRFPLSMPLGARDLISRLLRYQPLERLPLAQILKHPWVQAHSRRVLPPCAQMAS
UniProt P51451: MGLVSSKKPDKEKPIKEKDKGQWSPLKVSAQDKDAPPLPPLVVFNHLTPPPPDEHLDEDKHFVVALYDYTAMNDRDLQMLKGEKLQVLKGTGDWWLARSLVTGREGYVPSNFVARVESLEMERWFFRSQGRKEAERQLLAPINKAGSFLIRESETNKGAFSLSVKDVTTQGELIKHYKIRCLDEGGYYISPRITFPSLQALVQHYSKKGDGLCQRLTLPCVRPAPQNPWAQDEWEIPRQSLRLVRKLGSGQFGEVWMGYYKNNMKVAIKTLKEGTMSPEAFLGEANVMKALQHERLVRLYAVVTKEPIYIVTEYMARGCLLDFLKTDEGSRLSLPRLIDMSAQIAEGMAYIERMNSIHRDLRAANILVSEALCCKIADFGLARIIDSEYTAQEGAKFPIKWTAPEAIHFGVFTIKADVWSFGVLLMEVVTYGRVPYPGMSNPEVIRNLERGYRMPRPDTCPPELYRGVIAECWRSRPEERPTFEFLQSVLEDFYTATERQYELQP
UniProt P51813: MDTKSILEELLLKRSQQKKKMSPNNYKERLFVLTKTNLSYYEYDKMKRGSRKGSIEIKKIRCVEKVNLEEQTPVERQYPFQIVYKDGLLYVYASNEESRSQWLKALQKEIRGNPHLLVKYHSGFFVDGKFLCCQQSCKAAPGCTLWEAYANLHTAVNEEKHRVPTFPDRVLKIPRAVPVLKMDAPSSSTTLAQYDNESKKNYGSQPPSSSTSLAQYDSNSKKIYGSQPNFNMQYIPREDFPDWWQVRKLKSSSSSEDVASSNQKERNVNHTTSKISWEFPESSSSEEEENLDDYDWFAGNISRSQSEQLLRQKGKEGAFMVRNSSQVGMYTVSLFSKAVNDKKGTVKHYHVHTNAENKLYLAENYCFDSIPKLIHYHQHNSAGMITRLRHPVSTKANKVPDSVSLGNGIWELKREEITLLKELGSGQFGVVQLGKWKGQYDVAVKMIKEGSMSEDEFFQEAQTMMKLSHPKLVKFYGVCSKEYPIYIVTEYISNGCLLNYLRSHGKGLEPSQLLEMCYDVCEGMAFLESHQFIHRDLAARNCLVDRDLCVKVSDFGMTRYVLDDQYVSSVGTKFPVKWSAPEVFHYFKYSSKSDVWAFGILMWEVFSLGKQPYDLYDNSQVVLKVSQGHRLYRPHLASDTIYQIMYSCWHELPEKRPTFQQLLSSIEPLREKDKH
UniProt P15056, whole entry, looked up: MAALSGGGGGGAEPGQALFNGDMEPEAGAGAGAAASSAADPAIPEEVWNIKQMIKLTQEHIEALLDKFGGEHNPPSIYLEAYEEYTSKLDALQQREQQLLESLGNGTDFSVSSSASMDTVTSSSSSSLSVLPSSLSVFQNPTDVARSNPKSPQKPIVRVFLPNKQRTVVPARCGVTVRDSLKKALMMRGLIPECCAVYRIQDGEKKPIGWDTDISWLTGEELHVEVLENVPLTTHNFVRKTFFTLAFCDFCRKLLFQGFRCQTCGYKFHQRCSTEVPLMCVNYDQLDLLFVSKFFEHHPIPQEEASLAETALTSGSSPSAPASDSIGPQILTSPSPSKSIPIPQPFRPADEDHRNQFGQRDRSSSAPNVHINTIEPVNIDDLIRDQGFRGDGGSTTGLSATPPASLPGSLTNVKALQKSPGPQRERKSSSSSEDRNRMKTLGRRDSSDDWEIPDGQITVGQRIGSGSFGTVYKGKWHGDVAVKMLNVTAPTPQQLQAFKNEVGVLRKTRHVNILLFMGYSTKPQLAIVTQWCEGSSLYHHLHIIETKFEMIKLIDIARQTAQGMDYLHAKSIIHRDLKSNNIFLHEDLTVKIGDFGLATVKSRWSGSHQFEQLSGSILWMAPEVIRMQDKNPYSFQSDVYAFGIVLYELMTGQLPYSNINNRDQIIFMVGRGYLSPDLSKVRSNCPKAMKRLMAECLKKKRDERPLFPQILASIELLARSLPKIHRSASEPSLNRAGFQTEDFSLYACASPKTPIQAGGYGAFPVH
UniProt Q06187: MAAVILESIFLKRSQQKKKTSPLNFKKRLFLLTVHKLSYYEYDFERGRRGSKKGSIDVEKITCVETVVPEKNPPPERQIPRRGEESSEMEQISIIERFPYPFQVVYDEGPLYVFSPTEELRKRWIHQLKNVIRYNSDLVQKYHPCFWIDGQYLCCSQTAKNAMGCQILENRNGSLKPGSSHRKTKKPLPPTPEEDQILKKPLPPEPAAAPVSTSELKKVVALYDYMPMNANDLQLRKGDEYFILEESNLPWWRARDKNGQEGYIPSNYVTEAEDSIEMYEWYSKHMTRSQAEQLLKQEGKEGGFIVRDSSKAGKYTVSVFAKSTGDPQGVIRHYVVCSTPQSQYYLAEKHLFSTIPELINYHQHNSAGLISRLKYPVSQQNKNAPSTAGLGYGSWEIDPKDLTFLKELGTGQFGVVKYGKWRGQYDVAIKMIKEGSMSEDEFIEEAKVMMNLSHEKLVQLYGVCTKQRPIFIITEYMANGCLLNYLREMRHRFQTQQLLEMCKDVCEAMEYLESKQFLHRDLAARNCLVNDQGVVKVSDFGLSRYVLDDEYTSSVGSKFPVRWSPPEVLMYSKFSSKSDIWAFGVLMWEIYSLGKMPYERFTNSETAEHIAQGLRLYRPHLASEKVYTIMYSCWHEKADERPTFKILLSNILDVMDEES
UniProt Q9UQM7, whole entry: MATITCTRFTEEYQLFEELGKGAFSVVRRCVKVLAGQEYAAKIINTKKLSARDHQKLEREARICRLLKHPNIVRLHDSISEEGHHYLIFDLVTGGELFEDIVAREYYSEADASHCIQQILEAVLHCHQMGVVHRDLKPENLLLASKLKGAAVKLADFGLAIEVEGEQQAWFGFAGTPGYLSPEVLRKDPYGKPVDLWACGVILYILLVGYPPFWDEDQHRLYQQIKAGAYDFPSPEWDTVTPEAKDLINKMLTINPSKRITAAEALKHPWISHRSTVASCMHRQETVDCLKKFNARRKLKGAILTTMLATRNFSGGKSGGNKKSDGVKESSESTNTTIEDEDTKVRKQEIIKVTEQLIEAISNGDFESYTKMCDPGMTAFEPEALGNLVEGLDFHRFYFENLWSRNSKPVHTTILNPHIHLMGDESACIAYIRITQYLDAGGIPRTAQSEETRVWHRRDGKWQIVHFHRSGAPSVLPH
UniProt Q15131: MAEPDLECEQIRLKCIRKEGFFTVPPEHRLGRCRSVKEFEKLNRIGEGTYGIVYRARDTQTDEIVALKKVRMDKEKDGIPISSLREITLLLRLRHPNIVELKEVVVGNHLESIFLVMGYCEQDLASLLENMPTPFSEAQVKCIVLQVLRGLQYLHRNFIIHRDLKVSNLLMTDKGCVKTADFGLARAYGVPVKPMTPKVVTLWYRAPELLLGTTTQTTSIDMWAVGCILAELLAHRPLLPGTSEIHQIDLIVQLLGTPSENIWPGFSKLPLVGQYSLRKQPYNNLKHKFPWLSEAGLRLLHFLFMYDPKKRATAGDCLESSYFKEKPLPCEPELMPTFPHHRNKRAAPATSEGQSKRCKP
UniProt Q00526: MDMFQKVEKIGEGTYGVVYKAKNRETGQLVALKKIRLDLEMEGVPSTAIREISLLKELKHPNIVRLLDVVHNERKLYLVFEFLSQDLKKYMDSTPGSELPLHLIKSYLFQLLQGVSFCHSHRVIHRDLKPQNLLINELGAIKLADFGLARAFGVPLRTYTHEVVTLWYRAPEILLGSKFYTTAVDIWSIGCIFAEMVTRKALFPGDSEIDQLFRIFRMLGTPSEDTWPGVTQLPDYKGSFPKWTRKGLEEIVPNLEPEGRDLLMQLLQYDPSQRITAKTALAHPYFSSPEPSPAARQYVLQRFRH
UniProt P11802: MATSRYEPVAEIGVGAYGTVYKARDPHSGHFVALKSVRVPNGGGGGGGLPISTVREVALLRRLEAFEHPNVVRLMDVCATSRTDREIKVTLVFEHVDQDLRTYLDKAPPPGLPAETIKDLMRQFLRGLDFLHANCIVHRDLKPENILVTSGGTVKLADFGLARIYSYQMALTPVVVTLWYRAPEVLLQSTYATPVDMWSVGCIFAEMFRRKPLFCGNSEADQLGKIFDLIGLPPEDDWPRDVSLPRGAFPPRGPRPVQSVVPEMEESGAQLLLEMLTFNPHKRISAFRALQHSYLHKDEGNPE
UniProt Q00535, whole entry, looked up: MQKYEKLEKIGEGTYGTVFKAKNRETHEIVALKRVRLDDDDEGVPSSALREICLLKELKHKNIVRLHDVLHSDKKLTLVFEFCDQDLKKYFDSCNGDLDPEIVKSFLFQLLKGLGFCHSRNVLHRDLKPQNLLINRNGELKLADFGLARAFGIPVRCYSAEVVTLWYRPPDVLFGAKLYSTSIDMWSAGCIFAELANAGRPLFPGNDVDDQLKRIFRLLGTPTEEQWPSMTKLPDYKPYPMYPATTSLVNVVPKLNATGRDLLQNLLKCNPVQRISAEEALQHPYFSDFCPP
UniProt Q00534, whole entry: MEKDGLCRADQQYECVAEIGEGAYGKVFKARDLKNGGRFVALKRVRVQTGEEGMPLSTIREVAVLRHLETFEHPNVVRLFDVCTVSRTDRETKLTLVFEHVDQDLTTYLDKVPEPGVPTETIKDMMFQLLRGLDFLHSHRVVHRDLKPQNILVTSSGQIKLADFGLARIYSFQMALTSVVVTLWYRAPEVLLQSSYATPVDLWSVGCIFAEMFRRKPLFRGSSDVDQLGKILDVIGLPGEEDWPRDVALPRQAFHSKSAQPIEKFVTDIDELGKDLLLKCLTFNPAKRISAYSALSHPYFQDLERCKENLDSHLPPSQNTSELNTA

How the values were obtained:
Test in all cases: kinase-Nluc reporter destabilization hit call (1 = scored as downregulated) (binary); higher = compound decreases kinase abundance
Conditions in all cases: K562; 2-18 h
[1] = target: ABL1 (UniProt P00519)
[2] = target: AKT1 (UniProt P31749)
[3] = target: ALK (UniProt Q9UM73)
[4] = target: ARAF (UniProt P10398)
[5] = target: AURKA (UniProt O14965)
[6] = target: AURKB (UniProt Q96GD4)
[7] = target: AURKC (UniProt Q9UQB9)
[8] = target: BLK (UniProt P51451)
[9] = target: BMX (UniProt P51813)
[10] = target: BRAF (UniProt P15056)
[11] = system: BRAF_V600E
[12] = target: BTK (UniProt Q06187)
[13] = target: CAMK2A (UniProt Q9UQM7)
[14] = target: CAMK2G (UniProt Q13555)
[15] = target: CDK10 (UniProt Q15131)
[16] = target: CDK2 (UniProt P24941)
[17] = target: CDK3 (UniProt Q00526)
[18] = target: CDK4 (UniProt P11802)
[19] = target: CDK5 (UniProt Q00535)
[20] = target: CDK6 (UniProt Q00534)

Structure (SMILES) | kinase-Nluc reporter destabilization hit call [1] | kinase-Nluc reporter destabilization hit call [2] | kinase-Nluc reporter destabilization hit call [3] | kinase-Nluc reporter destabilization hit call [4] | kinase-Nluc reporter destabilization hit call [5] | kinase-Nluc reporter destabilization hit call [6] | kinase-Nluc reporter destabilization hit call [7] | kinase-Nluc reporter destabilization hit call [8] | kinase-Nluc reporter destabilization hit call [9] | kinase-Nluc reporter destabilization hit call [10] | kinase-Nluc reporter destabilization hit call [11] | kinase-Nluc reporter destabilization hit call [12] | kinase-Nluc reporter destabilization hit call [13] | kinase-Nluc reporter destabilization hit call [14] | kinase-Nluc reporter destabilization hit call [15] | kinase-Nluc reporter destabilization hit call [16] | kinase-Nluc reporter destabilization hit call [17] | kinase-Nluc reporter destabilization hit call [18] | kinase-Nluc reporter destabilization hit call [19] | kinase-Nluc reporter destabilization hit call [20]
COc1cccc2cc(-c3nc([C@H]4CC[C@H](C(=O)O)CC4)n4ncnc(N)c34)[nH]c12 (2.5 µM) | inactive: 0 | inactive: 0 | inactive: 0 | inactive: 0 | inactive: 0 | inactive: 0 | inactive: 0 | inactive: 0 | inactive: 0 | inactive: 0 | inactive: 0 | inactive: 0 | inactive: 0 | inactive: 0 | inactive: 0 | inactive: 0 | inactive: 0 | inactive: 0 | inactive: 0 | inactive: 0
O=C(Nc1cc(Cl)cc(Cl)c1)Nc1cc(Cl)cc(Cl)c1 (10 µM) | inactive: 0 | inactive: 0 | inactive: 0 | inactive: 0 | inactive: 0 | inactive: 0 | inactive: 0 | inactive: 0 | inactive: 0 | inactive: 0 | inactive: 0 | inactive: 0 | inactive: 0 | inactive: 0 | inactive: 0 | inactive: 0 | inactive: 0 | inactive: 0 | inactive: 0 | inactive: 0
CCCC[C@H](CO)Nc1nc(NC)ncc1OC [Interferon receptor inducer-1] (10 µM) | inactive: 0 | inactive: 0 | inactive: 0 | inactive: 0 | inactive: 0 | inactive: 0 | inactive: 0 | inactive: 0 | inactive: 0 | inactive: 0 | inactive: 0 | inactive: 0 | inactive: 0 | inactive: 0 | inactive: 0 | inactive: 0 | inactive: 0 | inactive: 0 | inactive: 0 | inactive: 0
CC(C)Cn1cc(C#N)c2cc(Oc3ccc(NC(=O)[C@@H]4CCCN4)cc3)ccc21 (10 µM) | inactive: 0 | inactive: 0 | inactive: 0 | inactive: 0 | inactive: 0 | inactive: 0 | inactive: 0 | inactive: 0 | inactive: 0 | inactive: 0 | inactive: 0 | inactive: 0 | inactive: 0 | inactive: 0 | inactive: 0 | inactive: 0 | inactive: 0 | inactive: 0 | inactive: 0 | inactive: 0
COC(=O)/C=C/c1ccc(O)c(OC)c1 [Ferulic acid methyl ester] (10 µM) | inactive: 0 | inactive: 0 | inactive: 0 | inactive: 0 | inactive: 0 | inactive: 0 | inactive: 0 | inactive: 0 | inactive: 0 | inactive: 0 | inactive: 0 | inactive: 0 | inactive: 0 | inactive: 0 | inactive: 0 | inactive: 0 | inactive: 0 | inactive: 0 | inactive: 0 | inactive: 0
COc1c(OCCCN2CCOCC2)ccc2c3n(c(=NC(=O)c4cnc(N)nc4)nc12)CCN3 [Copanlisib (dihydrochloride)] (10 µM) | active: 1 | inactive: 0 | inactive: 0 | inactive: 0 | active: 1 | inactive: 0 | inactive: 0 | inactive: 0 | inactive: 0 | inactive: 0 | inactive: 0 | inactive: 0 | inactive: 0 | inactive: 0 | inactive: 0 | inactive: 0 | inactive: 0 | inactive: 0 | inactive: 0 | inactive: 0
Cc1cc([N+](=O)[O-])c(NS(=O)(=O)c2cccc(C(=O)O)c2)cc1-c1cccnc1 [Alofanib] (10 µM) | inactive: 0 | inactive: 0 | inactive: 0 | inactive: 0 | inactive: 0 | inactive: 0 | inactive: 0 | inactive: 0 | inactive: 0 | inactive: 0 | inactive: 0 | inactive: 0 | inactive: 0 | inactive: 0 | inactive: 0 | inactive: 0 | inactive: 0 | inactive: 0 | inactive: 0 | inactive: 0
Cc1occ2c1C(=O)c1c(O)ccc(O)c1C2 (2.5 µM) | inactive: 0 | inactive: 0 | inactive: 0 | inactive: 0 | inactive: 0 | inactive: 0 | inactive: 0 | inactive: 0 | inactive: 0 | inactive: 0 | inactive: 0 | inactive: 0 | inactive: 0 | inactive: 0 | inactive: 0 | inactive: 0 | inactive: 0 | inactive: 0 | inactive: 0 | inactive: 0
COc1cc(-c2cnc(N)c(-c3ccc(NC(=O)c4cn(CC5CCOCC5)cc(-c5ccc(C)cn5)c4=O)cc3F)c2)ccc1OC[C@H]1COCCO1 [DS-1205b (free base)] (10 µM) | inactive: 0 | inactive: 0 | inactive: 0 | inactive: 0 | inactive: 0 | inactive: 0 | inactive: 0 | inactive: 0 | inactive: 0 | inactive: 0 | inactive: 0 | inactive: 0 | inactive: 0 | inactive: 0 | inactive: 0 | inactive: 0 | inactive: 0 | inactive: 0 | inactive: 0 | inactive: 0
CC(=O)NCC(=O)N[C@@H](C)C(=O)N[C@@H](CCC(N)=O)C(=O)N[C@@H](Cc1ccccc1)C(=O)N[C@@H](CO)C(=O)N[C@@H](CCCCN)C(=O)N[C@H](C(=O)N[C@@H](C)C(=O)N[C@@H](C)C(=O)N[C@@H](CCCCN)C(=O)O)[C@@H](C)O (10 µM) | inactive: 0 | inactive: 0 | inactive: 0 | inactive: 0 | inactive: 0 | inactive: 0 | inactive: 0 | inactive: 0 | inactive: 0 | inactive: 0 | inactive: 0 | inactive: 0 | inactive: 0 | inactive: 0 | inactive: 0 | inactive: 0 | inactive: 0 | inactive: 0 | inactive: 0 | inactive: 0
CC(=O)Nc1nc(C)c(-c2ccc(Cl)c(S(=O)(=O)NCCO)c2)s1 (10 µM) | inactive: 0 | inactive: 0 | inactive: 0 | inactive: 0 | inactive: 0 | inactive: 0 | inactive: 0 | inactive: 0 | inactive: 0 | inactive: 0 | inactive: 0 | inactive: 0 | inactive: 0 | inactive: 0 | inactive: 0 | inactive: 0 | inactive: 0 | inactive: 0 | inactive: 0 | inactive: 0
COc1ccc(F)cc1C(=O)NCc1ccc(-c2nn([C@@H](C)C(F)(F)F)c(N)c2C(N)=O)cc1 [Pirtobrutinib] (10 µM) | inactive: 0 | inactive: 0 | inactive: 0 | inactive: 0 | inactive: 0 | inactive: 0 | inactive: 0 | inactive: 0 | inactive: 0 | inactive: 0 | inactive: 0 | inactive: 0 | inactive: 0 | inactive: 0 | inactive: 0 | inactive: 0 | inactive: 0 | inactive: 0 | inactive: 0 | inactive: 0
O=C(Nc1nccs1)C(c1cc(F)ccc1O)N1Cc2ccccc2C1=O (stereo not given) (10 µM) | inactive: 0 | inactive: 0 | inactive: 0 | inactive: 0 | inactive: 0 | inactive: 0 | inactive: 0 | active: 1 | inactive: 0 | inactive: 0 | inactive: 0 | inactive: 0 | inactive: 0 | inactive: 0 | inactive: 0 | inactive: 0 | inactive: 0 | inactive: 0 | inactive: 0 | inactive: 0
O=C(NCc1cccc(O)c1)c1cc2cc(F)ccc2[nH]1 (10 µM) | inactive: 0 | inactive: 0 | inactive: 0 | inactive: 0 | inactive: 0 | inactive: 0 | inactive: 0 | inactive: 0 | inactive: 0 | inactive: 0 | inactive: 0 | inactive: 0 | inactive: 0 | inactive: 0 | inactive: 0 | inactive: 0 | inactive: 0 | inactive: 0 | inactive: 0 | inactive: 0
CC[C@@H]1CN(C(=O)NCC(F)(F)F)C[C@@H]1c1cnc2cnc3[nH]ccc3n12 [Upadacitinib] (10 µM) | inactive: 0 | inactive: 0 | inactive: 0 | inactive: 0 | inactive: 0 | inactive: 0 | inactive: 0 | inactive: 0 | inactive: 0 | inactive: 0 | inactive: 0 | inactive: 0 | inactive: 0 | inactive: 0 | inactive: 0 | inactive: 0 | inactive: 0 | inactive: 0 | inactive: 0 | inactive: 0
CS(=O)(=O)N1CCc2c(-c3cnc(N)nc3)nc(N3CCOCC3)nc21 (10 µM) | inactive: 0 | inactive: 0 | inactive: 0 | inactive: 0 | inactive: 0 | inactive: 0 | inactive: 0 | inactive: 0 | inactive: 0 | inactive: 0 | inactive: 0 | inactive: 0 | inactive: 0 | inactive: 0 | inactive: 0 | inactive: 0 | inactive: 0 | inactive: 0 | inactive: 0 | inactive: 0
C[C@@H]1CN(CC(=O)Nc2ccc3c(c2)Cc2cccc(-c4cc(=O)cc(N5CCOCC5)o4)c2S3)C[C@H](C)O1 (2.5 µM) | inactive: 0 | inactive: 0 | inactive: 0 | inactive: 0 | inactive: 0 | inactive: 0 | inactive: 0 | inactive: 0 | inactive: 0 | inactive: 0 | inactive: 0 | inactive: 0 | inactive: 0 | inactive: 0 | inactive: 0 | inactive: 0 | inactive: 0 | inactive: 0 | inactive: 0 | inactive: 0

Looked up above:
Entry of C[C@@H]1CN(CC(=O)Nc2ccc3c(c2)Cc2cccc(-c4cc(=O)cc(N5CCOCC5)o4)c2S3)C[C@H](C)O1 (2.5 µM) under kinase-Nluc reporter destabilization hit call [3]: inactive: 0
Entry of O=C(Nc1cc(Cl)cc(Cl)c1)Nc1cc(Cl)cc(Cl)c1 (10 µM) under kinase-Nluc reporter destabilization hit call [1]: inactive: 0
